These are yes or no findings as the source states them, for the method shown. Binding seen in cells or lysates may run through a third protein. Some results given as binding are weak or reduced against the parent protein; the word gives no strength. For some assays here: Where a sequence is shown, tags or fusion partners need not be part of it.

By UniProt entry, the sequences of proteins in these tests, tags left out. Where a name states a change or a piece, a line headed by the entry shows the natural chain unless it says otherwise.
UniProt Q9H792: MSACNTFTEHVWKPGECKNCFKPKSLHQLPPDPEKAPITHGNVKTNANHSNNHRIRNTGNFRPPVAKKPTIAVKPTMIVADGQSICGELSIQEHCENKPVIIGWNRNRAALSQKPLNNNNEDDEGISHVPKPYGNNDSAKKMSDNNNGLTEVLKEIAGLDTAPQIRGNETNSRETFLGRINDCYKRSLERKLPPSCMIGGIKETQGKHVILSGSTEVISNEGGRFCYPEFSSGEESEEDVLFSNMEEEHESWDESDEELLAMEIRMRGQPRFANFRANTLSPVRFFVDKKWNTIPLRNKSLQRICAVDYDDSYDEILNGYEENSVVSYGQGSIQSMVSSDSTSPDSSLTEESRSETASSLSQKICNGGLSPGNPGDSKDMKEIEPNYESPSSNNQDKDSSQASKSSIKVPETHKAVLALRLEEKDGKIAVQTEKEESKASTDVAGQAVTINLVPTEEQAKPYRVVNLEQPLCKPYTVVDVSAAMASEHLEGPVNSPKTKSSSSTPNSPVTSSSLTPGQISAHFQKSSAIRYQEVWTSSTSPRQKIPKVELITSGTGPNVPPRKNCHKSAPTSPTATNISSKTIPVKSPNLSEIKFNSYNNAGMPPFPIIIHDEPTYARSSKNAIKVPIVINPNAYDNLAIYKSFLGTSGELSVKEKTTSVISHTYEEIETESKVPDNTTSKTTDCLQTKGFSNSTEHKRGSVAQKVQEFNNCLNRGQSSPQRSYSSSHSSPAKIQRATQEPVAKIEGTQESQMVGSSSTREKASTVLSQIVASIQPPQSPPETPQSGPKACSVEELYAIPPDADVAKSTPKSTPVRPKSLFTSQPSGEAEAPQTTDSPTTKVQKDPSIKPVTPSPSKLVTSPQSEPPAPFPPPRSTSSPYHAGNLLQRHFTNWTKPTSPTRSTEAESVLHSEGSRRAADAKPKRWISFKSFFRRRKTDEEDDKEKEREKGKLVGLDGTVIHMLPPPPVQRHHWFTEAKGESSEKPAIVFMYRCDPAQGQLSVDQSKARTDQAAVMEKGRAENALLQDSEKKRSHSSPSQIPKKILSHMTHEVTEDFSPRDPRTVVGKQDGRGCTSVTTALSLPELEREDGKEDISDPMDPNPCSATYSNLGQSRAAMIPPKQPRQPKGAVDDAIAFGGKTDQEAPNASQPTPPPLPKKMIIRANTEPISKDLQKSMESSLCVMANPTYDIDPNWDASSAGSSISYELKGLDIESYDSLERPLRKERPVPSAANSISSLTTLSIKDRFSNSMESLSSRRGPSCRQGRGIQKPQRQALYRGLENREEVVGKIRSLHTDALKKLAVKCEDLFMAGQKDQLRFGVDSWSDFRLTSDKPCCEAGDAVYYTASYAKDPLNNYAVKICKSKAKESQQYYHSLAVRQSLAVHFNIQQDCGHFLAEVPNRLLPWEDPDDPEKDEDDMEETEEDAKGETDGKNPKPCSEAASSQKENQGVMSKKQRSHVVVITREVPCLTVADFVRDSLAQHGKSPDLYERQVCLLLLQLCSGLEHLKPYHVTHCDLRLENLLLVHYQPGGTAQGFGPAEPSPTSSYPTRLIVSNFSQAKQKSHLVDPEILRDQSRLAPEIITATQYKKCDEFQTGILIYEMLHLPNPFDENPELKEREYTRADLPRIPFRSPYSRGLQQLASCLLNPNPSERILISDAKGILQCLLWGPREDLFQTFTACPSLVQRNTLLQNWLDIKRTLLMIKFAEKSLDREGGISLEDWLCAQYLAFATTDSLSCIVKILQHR
UniProt P46109: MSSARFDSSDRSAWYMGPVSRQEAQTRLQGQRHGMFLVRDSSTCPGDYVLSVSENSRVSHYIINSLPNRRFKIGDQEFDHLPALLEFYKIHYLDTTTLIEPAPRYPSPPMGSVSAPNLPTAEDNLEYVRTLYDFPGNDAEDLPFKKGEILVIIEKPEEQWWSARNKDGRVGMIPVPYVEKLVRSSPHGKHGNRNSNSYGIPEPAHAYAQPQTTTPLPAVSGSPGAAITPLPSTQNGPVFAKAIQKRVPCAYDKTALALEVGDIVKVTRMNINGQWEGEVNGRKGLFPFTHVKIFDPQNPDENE
UniProt P62993: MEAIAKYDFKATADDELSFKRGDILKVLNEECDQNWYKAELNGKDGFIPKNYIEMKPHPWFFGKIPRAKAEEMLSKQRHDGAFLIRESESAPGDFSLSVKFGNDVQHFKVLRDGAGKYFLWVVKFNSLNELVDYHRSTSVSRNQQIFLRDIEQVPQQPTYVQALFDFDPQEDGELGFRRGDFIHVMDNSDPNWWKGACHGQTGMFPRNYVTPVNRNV

Assay [1] has as its target Flag-tagged PEAK1 R297E/R303E (human) (UniProt Q9H792). Briefly: co-IP.
The target in assay [2] is Flag-tagged PEAK1, wildtype (human) (UniProt Q9H792). The assay can be described thus: co-IP.
The target of assay [3] is Flag-tagged PEAK1 R297A/L301A/R303A (human) (UniProt Q9H792). Briefly: co-IP.
Assay [4] has as its target V1- or V2-labeled fusion of PEAK1 (human) (UniProt Q9H792). Briefly: split reporter.
For assay [5], the target named is T1, V1- or V2-labeled fusion of PEAK2 (UniProt Q86YV5).
T1 sequence: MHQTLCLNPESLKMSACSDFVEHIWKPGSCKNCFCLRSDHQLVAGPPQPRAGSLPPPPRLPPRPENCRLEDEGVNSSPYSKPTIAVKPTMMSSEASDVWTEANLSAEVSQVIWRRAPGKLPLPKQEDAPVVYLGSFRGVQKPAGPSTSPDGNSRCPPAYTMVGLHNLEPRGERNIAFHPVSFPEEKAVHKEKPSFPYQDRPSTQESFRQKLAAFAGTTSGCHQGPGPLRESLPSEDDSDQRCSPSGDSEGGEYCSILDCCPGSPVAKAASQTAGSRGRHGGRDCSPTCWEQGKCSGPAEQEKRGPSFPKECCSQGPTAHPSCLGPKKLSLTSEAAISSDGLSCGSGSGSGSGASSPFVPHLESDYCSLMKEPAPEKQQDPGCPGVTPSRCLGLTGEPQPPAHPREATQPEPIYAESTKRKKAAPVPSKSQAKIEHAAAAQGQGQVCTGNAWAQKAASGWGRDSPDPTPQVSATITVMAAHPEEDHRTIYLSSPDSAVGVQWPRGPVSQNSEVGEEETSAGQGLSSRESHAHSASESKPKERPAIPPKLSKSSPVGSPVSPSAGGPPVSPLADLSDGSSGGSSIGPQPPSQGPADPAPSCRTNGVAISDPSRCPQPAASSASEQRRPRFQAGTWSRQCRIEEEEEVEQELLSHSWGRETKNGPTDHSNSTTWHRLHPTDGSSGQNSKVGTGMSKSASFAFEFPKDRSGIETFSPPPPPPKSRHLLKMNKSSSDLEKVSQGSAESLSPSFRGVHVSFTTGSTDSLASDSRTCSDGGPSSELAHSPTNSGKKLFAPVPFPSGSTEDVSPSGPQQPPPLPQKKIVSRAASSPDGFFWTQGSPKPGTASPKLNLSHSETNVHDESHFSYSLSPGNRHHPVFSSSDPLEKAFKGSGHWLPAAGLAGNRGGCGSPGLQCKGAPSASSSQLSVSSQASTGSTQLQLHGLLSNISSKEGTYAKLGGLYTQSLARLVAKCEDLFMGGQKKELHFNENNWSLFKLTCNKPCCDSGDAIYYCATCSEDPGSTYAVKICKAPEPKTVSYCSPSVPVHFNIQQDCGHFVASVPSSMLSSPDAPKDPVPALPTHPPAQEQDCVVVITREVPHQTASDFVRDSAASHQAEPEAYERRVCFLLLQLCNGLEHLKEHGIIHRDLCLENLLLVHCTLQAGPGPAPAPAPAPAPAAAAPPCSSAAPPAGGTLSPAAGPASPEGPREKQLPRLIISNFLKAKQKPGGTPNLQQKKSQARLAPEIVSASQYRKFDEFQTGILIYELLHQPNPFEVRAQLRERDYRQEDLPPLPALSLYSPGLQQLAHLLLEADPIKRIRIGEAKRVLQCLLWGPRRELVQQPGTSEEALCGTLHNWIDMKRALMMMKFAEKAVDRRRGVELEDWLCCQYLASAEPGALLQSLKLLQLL
The assay can be described thus: split reporter.

As for Crk-L (from UniProt P46109 1-303), the binding result in assay [1], in assay [2] and in assay [3] was “binds” each time.
Consider Grb2 (from UniProt P62993 1-217), for which the binding result in assay [1], in assay [2] and in assay [3] was “binds” in each case.
Take “V1- or V2-labeled fusion of PEAK1 (from UniProt Q9H792 1-1746)”: the binding result in assay [4] and in assay [5] was “binds” throughout.

(Values after paper doi:10.1101/2024.02.14.580406.)
